{"source": "patent US20150164762A1", "about": "“USE OF ETHANOLAMINE PHOSPHATE” (priority 2012, published 2015)", "tested_on": "BEAS-2B", "assay": "Comprehensive gene expression analysis with Whole Human Genome DNA microarray after EP treatment", "assay_type": "cell-based", "details": "1 mM EP, 24 hours", "procedure": "Cells of the established normal human airway epithelial cell line BEAS-2B were used in the experiment. These cells were expansively cultured in 10% FBS RPMI-1640, and seeded at a density of 1×10^5/cm^2 on a 24-well plate. After 24 hours 0.1% FBS RPMI-1640 was substituted, and EP was administered to a final concentration of 0 or 1 mM (n=4). After 24 hours, the cells were used as the DNA microarray samples. RNA was extracted using a QIAGEN RNeasy Mini Kit. The DNA microarray test was performed using a Whole Human Genome DNA microarray 4×44K (Agilent), and the necessary labeling reagents and the like for the DNA microarray test were all from Agilent. The DNA microarray test data were analyzed statistically with GeneSpring (Agilent) dedicated analysis software, and gene function analysis (Gene Ontology (GO) analysis) was performed based on differential expression. The purpose of the GO analysis is to determine stochastically the degree to which gene sets with statistically significant differential expression correspond to known functional classification gene sets. […] The p-value is calculated according to the following formula."}
{"smiles": "NCCOP(=O)(O)O", "note": "[EP, Ethanolamine phosphate]", "values": [{"measurement": "number of probes (genes) whose expression was increased to 1.5-fold or more (p<0.05)", "value": 801}, {"measurement": "number of probes (genes) whose expression was reduced to 1/1.5 or less (p<0.05)", "value": 1939}]}
